# Experimental data reported in PubChem BioAssay AID504834 (National Center for Advancing Translational Sciences (NCATS), 2011).
# The whole screen tested about 320,000 compounds, of which about 22,000 (6.9%) were called active. The inconclusive results got no clear call from the source; some entries with a clear call stand among them for comparison. Calls follow the shape of the dose curve; as a rule, active = well fitted inhibition curve with a large enough effect; inconclusive = small, poorly fitted or top-dose-only effect, or another doubt; inactive = no such curve, though single readings can be large or run the other way. A potency beside an inconclusive call is a rough fit, not a confirmed value.
# Assay: Primary qHTS for delayed death inhibitors of the malarial parasite plastid, 96 hour incubation
# Settings: P. falciparum luciferase reporter growth; series mostly up to 28.7 µM
# Outline: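 Cell-based qHTS: luciferase-tagged P. falciparum in erythrocytes (2% hematocrit, 0.05% parasitemia final) incubated with compounds for 96 hours, 37 C, 5% CO2; luciferase detection reagent then added and luminescence measured.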
# Potency is read from the fitted curve at half-maximal effect.
row,Structure (SMILES),Potency
1,CCOC(=O)N1CCN(C(=O)C2CCCN(Cc3nc(-c4ccc(Cl)cc4)oc3C)C2)CC1 (centres undefined),active: 10.4 µM
2,CCOC(=O)c1sc2nc(C)nc(NCc3ccc(F)cc3)c2c1C,"inconclusive: 11.7 µM [inhibitor, partial curve, poor fit]"
3,Cc1cc(F)ccc1S(=O)(=O)Nc1ccccc1C(=O)Nc1ncn[nH]1,inactive
4,O=c1c2cc(F)ccc2sn1-c1ccc(F)cc1,inactive
5,CCc1ccc(-c2cn(C3CCCCC3)c(=S)[nH]2)cc1,"inconclusive: 18.5 µM [inhibitor, single point]"
6,CCc1c(C)nc(N2CCN(c3ccc(F)cc3)CC2)[nH]c1=O,"inconclusive: 11.7 µM [inhibitor, single point]"
7,COCC(COS(N)(=O)=O)Cc1ccccc1 (centres undefined),"inconclusive: 20.8 µM [inhibitor, single point]"
8,CN(C)c1ccc(NC(=S)NC(=O)/C=C/c2ccco2)cc1,"inconclusive: 9.28 µM [inhibitor, partial curve, poor fit]"
9,O=[N+]([O-])c1c(NCc2ccco2)ccc2nonc12,inactive
10,CCCCCCSc1ccc([C@H]2N[C@@](CC(C)C)(C(=O)OC)[C@H]3C(=O)N(C)C(=O)[C@@H]23)cc1OC,active: 4.65 µM
11,O=C(c1ccc(F)cc1)C(CCCCCC(CN1CCOCC1)C(=O)c1ccc(F)cc1)CN1CCOCC1 (centres undefined),active: 9.28 µM
12,CCCCC(=O)Nc1cc(N(C)C)nc2ccccc12,"inconclusive: 18.5 µM [inhibitor, single point]"
13,Cc1ccccc1C(=O)NNC(=O)c1ccncc1,"inconclusive: 5.22 µM [inhibitor, partial curve, poor fit]"
14,CCCn1c(N)c(N2CCCCC2)c(=O)n(CC(=O)Nc2ccccc2C)c1=O,"inconclusive: 11.7 µM [inhibitor, single point]"
15,CCOC(=O)C1(Cc2cccc(Cl)c2)CCCN(C(=O)c2ccoc2C)C1 (centres undefined),"inconclusive: 18.5 µM [inhibitor, single point]"
16,COC(=O)C1=C(c2ccc(OC)c(OC)c2)C[C@@H]2CC[C@H]1N2C(=O)N1CCC(O)CC1,inactive
17,O=C(/C=C/c1cccc([N+](=O)[O-])c1)NCc1ccccc1,inactive
18,CC(=O)c1cccc(N(C(=O)c2ccco2)C(C(=O)NC2CCCC2)c2ccc(N3CCOCC3)cc2)c1 (centres undefined),inactive
19,O=C(NC1CCCCCC1)c1cc2c(=O)n3ccccc3nc2s1,"inconclusive: 11.7 µM [inhibitor, single point]"
20,COc1cc(NC(=O)c2cc(S(=O)(=O)N3CCCCC3)c[nH]2)cc(OC)c1,"inconclusive: 16.5 µM [inhibitor, single point]"
21,NC(=O)C1(N2CCCCC2)CCN(C(=O)NC2CCCCC2)CC1,active: 14.7 µM
22,C=CCC1S/C(=N/N=C/c2cccs2)NC1=O (centres undefined),"inconclusive: 9.28 µM [inhibitor, partial curve, poor fit]"

row,Structure (SMILES),Potency
1,Cc1cc(C)n(CCCNC(=O)C(C)(C)Oc2ccc(Cl)cc2)n1,"inconclusive: 16.5 µM [inhibitor, single point]"
2,O=C(COC(=O)Cc1ccc(-c2ccccc2)cc1)NCc1ccccc1,inactive
3,Cc1cc(C)n2nc(CNS(=O)(=O)c3ccc(C)c(C)c3)nc2n1,"inconclusive: 18.5 µM [inhibitor, single point]"
4,CC(=O)Nc1ccc(S(=O)(=O)N2CCC(NC(=O)C(Cc3cccc(F)c3)NC(C)=O)CC2)cc1 (centres undefined),"inconclusive: 14.7 µM [inhibitor, partial curve, poor fit]"
5,CCOc1ccc(C2NC(=O)Cc3cc(OC)c(OC)cc32)cc1 (centres undefined),"inconclusive: 18.5 µM [inhibitor, single point]"
6,Cc1noc(C)c1CSCC(=O)Nc1nc2ccc(S(C)(=O)=O)cc2s1,"inconclusive: 1.17 µM [inhibitor, full curve, poor fit]"
7,FC(F)(F)c1cc(-c2ccco2)nc(NCc2cccs2)n1,"inconclusive: 8.28 µM [inhibitor, single point]"
8,CC1(CCc2ccc3c(c2)OCO3)NCCc2c1[nH]c1ccccc21 (centres undefined),"inconclusive: 14.7 µM [inhibitor, single point]"
9,COc1ccc(N2CCN(/C(=N\S(=O)(=O)c3ccc(C)cc3)Nc3nc(C)cc(C)n3)CC2)cc1,"inconclusive: 6.57 µM [inhibitor, partial curve, poor fit]"
10,CC(=O)Nc1ccc(S(=O)(=O)Oc2cccc(N3C(=O)C4CCCCC4C3=O)c2)cc1 (centres undefined),inactive
11,Cc1cccc(-c2nsc(SCC(=O)Nc3cc(C)on3)n2)c1,"inconclusive: 18.5 µM [inhibitor, single point]"
12,Cn1c(SCc2nc(-c3ccccc3)no2)nnc1-c1cccs1,"inconclusive: 18.5 µM [inhibitor, single point]"
13,O=C(NCc1ccccc1)c1ccc(Cl)c(NC2=NC3CS(=O)(=O)CC3S2)c1 (centres undefined),"inconclusive: 4.65 µM [inhibitor, partial curve, poor fit]"
14,CN(CC(=O)NCCN1CCOCC1)S(=O)(=O)c1ccc(F)cc1,inactive
15,CCOc1ccc(NC(=O)c2c[nH]n3c(=O)cc(C4CCN(C(=O)OC(C)(C)C)CC4)nc23)cc1,"inconclusive: 2.08 µM [inhibitor, full curve]"
16,COc1c2ccc(C(=O)NCCCCc3ccccc3)cc2nn1C,inactive
17,COC(=O)c1ccc(CS(=O)(=O)c2ccc(F)cc2)o1,active: 5.22 µM
18,O=C(O)c1ccc(NC2=C(n3nnc4ccccc43)C(=O)c3ccccc3C2=O)cc1,"inconclusive: 1.47 µM [inhibitor, full curve, poor fit]"
19,COc1ccc(NS(=O)(=O)c2ccc(C)c(C(=O)NC3CCN(Cc4ccccc4)CC3)c2)cc1,active: 7.38 µM
20,COc1ccccc1N1CCN(C(=O)CSc2nnc(-c3ccoc3C)o2)CC1,"inconclusive: 10.4 µM [inhibitor, partial curve]"
21,COc1cc(C2c3sc(=O)[nH]c3SC3C(=O)N(c4ccc(Br)cc4)C(=O)C32)ccc1O (centres undefined),inactive
22,Cc1nc(=O)c(-c2ccccc2)c(C)n1CCCCCC(=O)O,"inconclusive: 18.5 µM [inhibitor, single point]"

# A run of entries of the results above, for reference:
row,Structure (SMILES),Potency
11,Cc1cccc(-c2nsc(SCC(=O)Nc3cc(C)on3)n2)c1,"inconclusive: 18.5 µM [inhibitor, single point]"
12,Cn1c(SCc2nc(-c3ccccc3)no2)nnc1-c1cccs1,"inconclusive: 18.5 µM [inhibitor, single point]"
13,O=C(NCc1ccccc1)c1ccc(Cl)c(NC2=NC3CS(=O)(=O)CC3S2)c1 (centres undefined),"inconclusive: 4.65 µM [inhibitor, partial curve, poor fit]"
14,CN(CC(=O)NCCN1CCOCC1)S(=O)(=O)c1ccc(F)cc1,inactive
